{"source": "patent US20200360381A1", "about": "“COMPOUNDS FOR TREATING DENGUE VIRUS INFECTION AND OTHER VIRAL INFECTIONS” (priority 2017, published 2020)", "system": "BHK21 cells", "test": "Cytotoxicity assay (CellTiter-Glo)", "details": "CC50 vs effective antiviral concentration", "note": "Some of these results come from one statement about several compounds together."}
{"molecule": "Cc1cc(C(C#N)c2ccc(Cl)cc2)c(Cl)cc1NC(=O)c1cc(I)cc(I)c1O", "note": "(stereo not shown) [Compound S4105]", "values": [{"measurement": "cytotoxicity concentration relative to effective antiviral concentration", "result": "more than 30 fold"}]}
